From EP1928451B1, “METHODS FOR TREATING SUBSTANCE-RELATED DISORDERS” (SK Biopharmaceuticals Co., LTD, priority 2005, dated 2007) come the findings set out here.

Structures are written as SMILES.

For this series, the system named is selectively-bred alcohol preferring (P) rats. The series can be described thus: Chronic administration: two-bottle choice alcohol intake in alcohol preferring rats. The class given is in vivo. The protocol: A compound of the present invention was tested in ethanol preferring rats, a model for acute and chronic drug addiction in humans using an adaptation of a published method (See, Rezvani, AH et al. Alcohol & Alcoholism, Vol. 25, No. 5, pp. 573-575, 1990, Rezvani AH, et al., Alcohol and Alcoholism (Oxford), 2000, 35(1), 76-83).
An enantiomer of Formula (Ib) was orally administered in a dose range of from about 10 to about 90 mg/kg in test and control treatment groups of 10 rats per group over a period of 14 days. Test conditions reflected approaches for evaluating patterns of drinking (e.g., single or multiple events).
Adult male selectively-bred alcohol preferring (P) rats were used. The selectively-bred alcohol-preferring (P) rats have been characterized and have been widely used to study the effects of different compounds on voluntary alcohol intake (Rezvani et al, 1990, 1991, 1992a, 1992b, 1999, 2000, 2002; 2003; Murphy et al, 1988; Overstreet et al., 1992, 1999; Li and McBride, 1995).
Rats were housed individually in wire mesh cages under a constant room temperature of 22 +1 °C and 12:12 light-dark cycle (8:00-20:00, dark). Animal were fed Agway Prolab Rat/Mouse/ Hamster 3000 formula and water ad libitum.
Establishment of baseline alcohol intake: Alcohol intake was determined using a standard two-bottle choice method (as described in Murphy et al. 1988; McBride et al. 1990; Rezvani et al. 1990, 1991, 1993, 1995, 1997, Rezvani and Grady, 1994).
Animals were first given free access to water in a graduated Richter tube for 1 day. After the first day, the animals were given access to only a solution of 10% (v/v) ethanol for 3 consecutive days. During this period animals became accustomed to drinking from Richter tubes and to the taste and pharmacological effects of alcohol. Thereafter, they were given free access to both water and a solution of 10% alcohol for at least 3 consecutive weeks and throughout of the period of study. The rats had free access to food. Water and alcohol intake was recorded at 6 and 24 hour after the treatment, food intake was measured at 24 hour. Animal body weight was measured every day.
The effect of chronic administration of a test compound on alcohol intake and tolerance to the anti-craving effects of the test compound was tested in naïve rats treated (via gavage tube) once a day either vehicle or test compound. A test compound dose of 45 mg/Kg was selected as an effective dose for chronic administration based on the results of the acute administration study phase. Themost effective dose was then used for the chronic adminstiration phase and administered for 14 consecutive days. Alcohol and water intake was recorded 6 and 24 h after each treatment administration and food intake was recorded at 24 hr.
The results were presented as means ±SEM (Standard Error of the Means). Alcohol intake (g/kg) was calculated by multiplying the volume of alcohol consumed in mL by 10% and 0.7893 (a factor representing ethanol density)/body weight in kg. Alcohol preference, expressed as percentage, was calculated as follows (volume of alcohol consumed (mL)/total fluid intake (mL)) x 100 (as described in Rezvani and Grady,. 1994; Rezvani et al., 1997). Statistical differences between treatment and control groups were determined by using ANOVA and Turkey Student's t test for multiple comparisons.

On to `NC(=O)OC[C@@H](O)c1ccccc1Cl` [Drug], for which the “Total Fluid Intake” value is 82 mL/kg (Day 1, 45 mg/Kg once a day via gavage); 76 mL/kg (Day 2, 45 mg/Kg once a day via gavage); 77 mL/kg (Day 3, 45 mg/Kg once a day via gavage); 81 mL/kg (Day 4, 45 mg/Kg once a day via gavage); 83 mL/kg (Day 5, 45 mg/Kg once a day via gavage); 75 mL/kg (Day 6, 45 mg/Kg once a day via gavage). In addition, the “Total Fluid Intake” value (Day 7, 45 mg/Kg once a day via gavage) came to 71 mL/kg; the “Total Fluid Intake” value (Day 8, 45 mg/Kg once a day via gavage) is 80 mL/kg; the “Total Fluid Intake” value (Day 9, 45 mg/Kg once a day via gavage) worked out at 67 mL/kg; the “Total Fluid Intake” value (Day 10, 45 mg/Kg once a day via gavage) came to 83 mL/kg; the “Total Fluid Intake” value (Day 11, 45 mg/Kg once a day via gavage) turned out to be 67 mL/kg; the “Total Fluid Intake” value (Day 12, 45 mg/Kg once a day via gavage) is 60 mL/kg. Further, the “Total Fluid Intake” value worked out at 78 mL/kg (Day 13, 45 mg/Kg once a day via gavage) and 83 mL/kg (Day 14, 45 mg/Kg once a day via gavage).
